The experiment has as its target HA-FLAG-tagged mouse WT BAZ2A (mouse). Nature of the experiment: co-IP; anti-HA magnetic beads IP of F/H-BAZ2A (WT, WY/GA, ΔTAM) from MNase-digested nuclear extracts of transfected PC3 cells; overnight at 4°C; washes with 200 mM NaCl, 0.02% NP-40; Western blot. (In general: A western blot detects proteins with antibodies after separation by electrophoresis.)

Results are given in words; binding and its absence hold for the method and conditions named. Binding seen in cells or lysates may run through a third protein. Binding can be weak; no strength is given.

B1: SMC1A (protein, UniProt Q14683 1-1233)
chain: MGFLKLIEIENFKSYKGRQIIGPFQRFTAIIGPNGSGKSNLMDAISFVLGEKTSNLRVKTLRDLIHGAPVGKPAANRAFVSMVYSEEGAEDRTFARVIVGGSSEYKINNKVVQLHEYSEELEKLGILIKARNFLVFQGAVESIAMKNPKERTALFEEISRSGELAQEYDKRKKEMVKAEEDTQFNYHRKKNIAAERKEAKQEKEEADRYQRLKDEVVRAQVQLQLFKLYHNEVEIEKLNKELASKNKEIEKDKKRMDKVEDELKEKKKELGKMMREQQQIEKEIKEKDSELNQKRPQYIKAKENTSHKIKKLEAAKKSLQNAQKHYKKRKGDMDELEKEMLSVEKARQEFEERMEEESQSQGRDLTLEENQVKKYHRLKEEASKRAATLAQELEKFNRDQKADQDRLDLEERKKVETEAKIKQKLREIEENQKRIEKLEEYITTSKQSLEEQKKLEGELTEEVEMAKRRIDEINKELNQVMEQLGDARIDRQESSRQQRKAEIMESIKRLYPGSVYGRLIDLCQPTQKKYQIAVTKVLGKNMDAIIVDSEKTGRDCIQYIKEQRGEPETFLPLDYLEVKPTDEKLRELKGAKLVIDVIRYEPPHIKKALQYACGNALVCDNVEDARRIAFGGHQRHKTVALDGTLFQKSGVISGGASDLKAKARRWDEKAVDKLKEKKERLTEELKEQMKAKRKEAELRQVQSQAHGLQMRLKYSQSDLEQTKTRHLALNLQEKSKLESELANFGPRINDIKRIIQSREREMKDLKEKMNQVEDEVFEEFCREIGVRNIREFEEEKVKRQNEIAKKRLEFENQKTRLGIQLDFEKNQLKEDQDKVHMWEQTVKKDENEIEKLKKEEQRHMKIIDETMAQLQDLKNQHLAKKSEVNDKNHEMEEIRKKLGGANKEMTHLQKEVTAIETKLEQKRSDRHNLLQACKMQDIKLPLSKGTMDDISQEEGSSQGEDSVSGSQRISSIYAREALIEIDYGDLCEDLKDAQAEEEIKQEMNTLQQKLNEQQSVLQRIAAPNMKAMEKLESVRDKFQETSDEFEAARKRAKKAKQAFEQIKKERFDRFNACFESVATNIDEIYKALSRNSSAQAFLGPENPEEPYLDGINYNCVAPGKRFRPMDNLSGGEKTVAALALLFAIHSYKPAPFFVLDEIDAALDNTNIGKVANYIKEQSTCNFQAIVISLKEEFYTKAESLIGVYPEQGDCVISKVLTFDLTKYPDANPNPNEQ
In the case of B1, the binding entry is “binds”.

B2: NUP107 (protein, UniProt P57740 1-925)
chain: MDRSGFGEISSPVIREAEVTRTARKQSAQKRVLLQASQDENFGNTTPRNQVIPRTPSSFRQPFTPTSRSLLRQPDISCILGTGGKSPRLTQSSGFFGNLSMVTNLDDSNWAAAFSSQRSGLFTNTEPHSITEDVTISAVMLREDDPGEAASMSMFSDFLQSFLKHSSSTVFDLVEEYENICGSQVNILSKIVSRATPGLQKFSKTASMLWLLQQEMVTWRLLASLYRDRIQSALEEESVFAVTAVNASEKTVVEALFQRDSLVRQSQLVVDWLESIAKDEIGEFSDNIEFYAKSVYWENTLHTLKQRQLTSYVGSVRPLVTELDPDAPIRQKMPLDDLDREDEVRLLKYLFTLIRAGMTEEAQRLCKRCGQAWRAATLEGWKLYHDPNVNGGTELEPVEGNPYRRIWKISCWRMAEDELFNRYERAIYAALSGNLKQLLPVCDTWEDTVWAYFRVMVDSLVEQEIQTSVATLDETEELPREYLGANWTLEKVFEELQATDKKRVLEENQEHYHIVQKFLILGDIDGLMDEFSKWLSKSRNNLPGHLLRFMTHLILFFRTLGLQTKEEVSIEVLKTYIQLLIREKHTNLIAFYTCHLPQDLAVAQYALFLESVTEFEQRHHCLELAKEADLDVATITKTVVENIRKKDNGEFSHHDLAPALDTGTTEEDRLKIDVIDWLVFDPAQRAEALKQGNAIMRKFLASKKHEAAKEVFVKIPQDSIAEIYNQCEEQGMESPLPAEDDNAIREHLCIRAYLEAHETFNEWFKHMNSVPQKPALIPQPTFTEKVAHEHKEKKYEMDFGIWKGHLDALTADVKEKMYNVLLFVDGGWMVDVREDAKEDHERTHQMVLLRKLCLPMLCFLLHTILHSTGQYQECLQLADMVSSERHKLYLVFSKEELRKLLQKLRESSLMLLDQGLDPLGYEIQL
For B2, the binding result was “binds”.

The values are drawn from article PMC10130768.
